Test results as given in PMC4493597.
No constants are given. Whether binding was seen depends on the method and setting. In cells and extracts the contact can be indirect. Some binding calls cover weakened binding; strength is not graded here. Tags and fused reporters may be left off the sequences shown. Values belong to the binder of their own block, whether it stands above or below them.

How the values were obtained:
[1] = target: T1, GST-BBS-5 (C. elegans) (C. elegans) (UniProt Q21626); experiment: pull-down; purified GST-BBS-5 (worm) immobilised on Glutathione-Sepharose beads, incubated with MBP-BBS-4 variants 4 hours at 4 °C; 20 mM Tris-HCl pH 7.4, 150 mM KCl, 5 mM MgCl2, 0.5% Triton X-100, 2 mM β-mercaptoethanol; blot with anti-MBP; whether the MBP proteins were purified is not told
T1 sequence: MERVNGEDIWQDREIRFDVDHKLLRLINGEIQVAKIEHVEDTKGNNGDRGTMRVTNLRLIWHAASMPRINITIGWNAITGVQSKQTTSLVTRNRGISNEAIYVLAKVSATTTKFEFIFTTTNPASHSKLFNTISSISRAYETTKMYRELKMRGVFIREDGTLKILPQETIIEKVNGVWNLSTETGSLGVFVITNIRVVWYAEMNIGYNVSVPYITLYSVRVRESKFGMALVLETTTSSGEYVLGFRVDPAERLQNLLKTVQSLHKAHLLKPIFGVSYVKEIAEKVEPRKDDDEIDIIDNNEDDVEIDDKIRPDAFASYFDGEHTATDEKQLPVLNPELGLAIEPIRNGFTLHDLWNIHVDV

[2] = target: T2, BBS-5 in the BiFC vector VC155 (C. elegans) (C. elegans) (UniProt Q21626); experiment: split reporter; Venus-based BiFC in living worm cilia; BBS-4 in VN173, BBS-5 in VC155, arl-13 promoter
T2 sequence: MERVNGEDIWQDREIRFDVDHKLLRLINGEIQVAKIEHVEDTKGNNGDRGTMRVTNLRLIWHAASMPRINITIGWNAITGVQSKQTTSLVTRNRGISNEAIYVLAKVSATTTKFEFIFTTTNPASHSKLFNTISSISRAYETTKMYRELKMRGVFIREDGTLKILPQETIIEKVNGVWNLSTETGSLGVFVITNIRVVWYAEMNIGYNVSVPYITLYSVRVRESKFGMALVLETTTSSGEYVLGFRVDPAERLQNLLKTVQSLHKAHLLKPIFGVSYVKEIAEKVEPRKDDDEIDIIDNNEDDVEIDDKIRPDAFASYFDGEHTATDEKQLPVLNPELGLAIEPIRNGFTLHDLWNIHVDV

[3] = target: T3, GST fused human BBS5 (human) (UniProt Q8N3I7); experiment: pull-down; human proteins; GST fusion on Glutathione-Sepharose beads incubated with MBP fusion, same binding buffer, five washes; blot with anti-MBP; whether the MBP protein was purified is not told
T3 sequence: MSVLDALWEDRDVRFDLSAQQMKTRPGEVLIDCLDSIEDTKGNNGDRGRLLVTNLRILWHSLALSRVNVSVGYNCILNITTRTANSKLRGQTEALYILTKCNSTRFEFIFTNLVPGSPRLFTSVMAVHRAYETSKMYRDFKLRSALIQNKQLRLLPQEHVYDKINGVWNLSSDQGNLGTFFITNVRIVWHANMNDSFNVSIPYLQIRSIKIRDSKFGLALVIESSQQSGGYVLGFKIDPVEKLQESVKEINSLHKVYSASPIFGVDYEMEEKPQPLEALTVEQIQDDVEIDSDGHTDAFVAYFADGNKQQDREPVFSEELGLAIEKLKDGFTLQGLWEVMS

[4] = target: T4, Flag-tagged BBS4 wild type (human) (UniProt Q96RK4); experiment: co-IP; HEK293T co-transfected with Myc-BBS5 and Flag-BBS4; lysate in IP buffer (20 mM Hepes-KOH pH 7.2, 150 mM NaCl, 0.5% NP-40) precipitated with anti-Flag (M2), blot with anti-Myc
T4 sequence: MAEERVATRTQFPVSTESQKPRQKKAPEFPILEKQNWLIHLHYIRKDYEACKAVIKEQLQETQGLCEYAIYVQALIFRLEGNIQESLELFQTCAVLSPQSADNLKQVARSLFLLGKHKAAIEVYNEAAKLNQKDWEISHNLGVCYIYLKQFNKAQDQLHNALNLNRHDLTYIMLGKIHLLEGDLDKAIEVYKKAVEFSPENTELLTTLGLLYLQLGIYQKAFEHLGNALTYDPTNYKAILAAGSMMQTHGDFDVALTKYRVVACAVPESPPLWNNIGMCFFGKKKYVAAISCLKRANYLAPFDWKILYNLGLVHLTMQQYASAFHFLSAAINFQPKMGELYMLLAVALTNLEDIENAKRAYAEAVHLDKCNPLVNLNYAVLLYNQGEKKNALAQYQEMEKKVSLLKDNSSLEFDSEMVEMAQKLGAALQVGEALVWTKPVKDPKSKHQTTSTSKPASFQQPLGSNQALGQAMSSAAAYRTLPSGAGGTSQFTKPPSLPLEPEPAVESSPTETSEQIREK

binding [1]: binds
B1: MBP-BBS-4 WT (C. elegans) (protein, UniProt Q5CZ52 1-462)
chain: MEASNQDEIIGTDVIPNEQDNPEEVVPEPTSLDVPPPPPERAPSAPKRVEILDCNSLNGLMYHYFAQGDYIECKSIIGEIQSKYLERNEAAFHVRGLIARNEGELEEAMECFHKAYELSGKNKRYFYETGRCNFLLGRHQIAVEQLTKASEVMKDNPKVWYWLARAIYHFPAEKVQGKTFNPVESARTILMKPDIAKDATLICFLGRLCEELGDTSGAIAAYKSSLKLQPDNTEVMNLLGLIYLRTGQVQEGFVQLGNCLAYDPANSQAILTIGSIMQNHSDHDVALNKYRVAADVSDYNGCLWNNIGIGLLARNKPAASHSALKKAAFINPLNYKISYNLGVLHDIMNLHCSALHYIKLCTELYPQNAKAVGAMAVILSHMNDDKNARLAYKKSIELKKNPSTILNYAIFEYRMKDVTAASNALKLYKDLQASGVKCSANNKETANLLESVLKQPDQSAEQ

binding [1]: binds
B2: MBP-BBS-4 carboxyl-terminus (C-Term, a.a. 270-462; C. elegans) (domain or fragment, UniProt Q5CZ52 270-462)
chain: ILTIGSIMQNHSDHDVALNKYRVAADVSDYNGCLWNNIGIGLLARNKPAASHSALKKAAFINPLNYKISYNLGVLHDIMNLHCSALHYIKLCTELYPQNAKAVGAMAVILSHMNDDKNARLAYKKSIELKKNPSTILNYAIFEYRMKDVTAASNALKLYKDLQASGVKCSANNKETANLLESVLKQPDQSAEQ

binding [1]: binds
B3: MBP-BBS-4 E107Q (C. elegans) (protein, UniProt Q5CZ52 1-462)
chain: MEASNQDEIIGTDVIPNEQDNPEEVVPEPTSLDVPPPPPERAPSAPKRVEILDCNSLNGLMYHYFAQGDYIECKSIIGEIQSKYLERNEAAFHVRGLIARNEGELEQAMECFHKAYELSGKNKRYFYETGRCNFLLGRHQIAVEQLTKASEVMKDNPKVWYWLARAIYHFPAEKVQGKTFNPVESARTILMKPDIAKDATLICFLGRLCEELGDTSGAIAAYKSSLKLQPDNTEVMNLLGLIYLRTGQVQEGFVQLGNCLAYDPANSQAILTIGSIMQNHSDHDVALNKYRVAADVSDYNGCLWNNIGIGLLARNKPAASHSALKKAAFINPLNYKISYNLGVLHDIMNLHCSALHYIKLCTELYPQNAKAVGAMAVILSHMNDDKNARLAYKKSIELKKNPSTILNYAIFEYRMKDVTAASNALKLYKDLQASGVKCSANNKETANLLESVLKQPDQSAEQ

binding [4]: binds
B7: Myc-tagged BBS5 (protein, UniProt Q8N3I7 1-341)
chain: MSVLDALWEDRDVRFDLSAQQMKTRPGEVLIDCLDSIEDTKGNNGDRGRLLVTNLRILWHSLALSRVNVSVGYNCILNITTRTANSKLRGQTEALYILTKCNSTRFEFIFTNLVPGSPRLFTSVMAVHRAYETSKMYRDFKLRSALIQNKQLRLLPQEHVYDKINGVWNLSSDQGNLGTFFITNVRIVWHANMNDSFNVSIPYLQIRSIKIRDSKFGLALVIESSQQSGGYVLGFKIDPVEKLQESVKEINSLHKVYSASPIFGVDYEMEEKPQPLEALTVEQIQDDVEIDSDGHTDAFVAYFADGNKQQDREPVFSEELGLAIEKLKDGFTLQGLWEVMS

The remaining lines, values behind:

B4: BBS-4 in the BiFC vector VN173 (C. elegans) (protein, UniProt Q5CZ52 1-462)
chain: MEASNQDEIIGTDVIPNEQDNPEEVVPEPTSLDVPPPPPERAPSAPKRVEILDCNSLNGLMYHYFAQGDYIECKSIIGEIQSKYLERNEAAFHVRGLIARNEGELEEAMECFHKAYELSGKNKRYFYETGRCNFLLGRHQIAVEQLTKASEVMKDNPKVWYWLARAIYHFPAEKVQGKTFNPVESARTILMKPDIAKDATLICFLGRLCEELGDTSGAIAAYKSSLKLQPDNTEVMNLLGLIYLRTGQVQEGFVQLGNCLAYDPANSQAILTIGSIMQNHSDHDVALNKYRVAADVSDYNGCLWNNIGIGLLARNKPAASHSALKKAAFINPLNYKISYNLGVLHDIMNLHCSALHYIKLCTELYPQNAKAVGAMAVILSHMNDDKNARLAYKKSIELKKNPSTILNYAIFEYRMKDVTAASNALKLYKDLQASGVKCSANNKETANLLESVLKQPDQSAEQ
binding [2]: binds

B5: BBS-4 E107Q, BiFC-tagged (C. elegans) (protein, UniProt Q5CZ52 1-462)
chain: MEASNQDEIIGTDVIPNEQDNPEEVVPEPTSLDVPPPPPERAPSAPKRVEILDCNSLNGLMYHYFAQGDYIECKSIIGEIQSKYLERNEAAFHVRGLIARNEGELEQAMECFHKAYELSGKNKRYFYETGRCNFLLGRHQIAVEQLTKASEVMKDNPKVWYWLARAIYHFPAEKVQGKTFNPVESARTILMKPDIAKDATLICFLGRLCEELGDTSGAIAAYKSSLKLQPDNTEVMNLLGLIYLRTGQVQEGFVQLGNCLAYDPANSQAILTIGSIMQNHSDHDVALNKYRVAADVSDYNGCLWNNIGIGLLARNKPAASHSALKKAAFINPLNYKISYNLGVLHDIMNLHCSALHYIKLCTELYPQNAKAVGAMAVILSHMNDDKNARLAYKKSIELKKNPSTILNYAIFEYRMKDVTAASNALKLYKDLQASGVKCSANNKETANLLESVLKQPDQSAEQ
binding [2]: binds

B6: MBP fused human BBS4 (protein, UniProt Q96RK4 1-519)
chain: MAEERVATRTQFPVSTESQKPRQKKAPEFPILEKQNWLIHLHYIRKDYEACKAVIKEQLQETQGLCEYAIYVQALIFRLEGNIQESLELFQTCAVLSPQSADNLKQVARSLFLLGKHKAAIEVYNEAAKLNQKDWEISHNLGVCYIYLKQFNKAQDQLHNALNLNRHDLTYIMLGKIHLLEGDLDKAIEVYKKAVEFSPENTELLTTLGLLYLQLGIYQKAFEHLGNALTYDPTNYKAILAAGSMMQTHGDFDVALTKYRVVACAVPESPPLWNNIGMCFFGKKKYVAAISCLKRANYLAPFDWKILYNLGLVHLTMQQYASAFHFLSAAINFQPKMGELYMLLAVALTNLEDIENAKRAYAEAVHLDKCNPLVNLNYAVLLYNQGEKKNALAQYQEMEKKVSLLKDNSSLEFDSEMVEMAQKLGAALQVGEALVWTKPVKDPKSKHQTTSTSKPASFQQPLGSNQALGQAMSSAAAYRTLPSGAGGTSQFTKPPSLPLEPEPAVESSPTETSEQIREK
binding [3]: binds
